Earlier results, collected in patent EP3006939A1, “Histidine-rich Glycoprotein as a marker for hepatic Farnesoid X receptor activation” (Gilead Sciences, Inc., priority 2014, dated 2016).
At least one structure is not confirmed: it was looked up by name or label, or the drawing left a doubt.

Details: after 6-week treatment period compared to baseline, phase II; cited from earlier work

CC[C@H]1[C@@H](O)[C@@H]2[C@H](CC[C@]3(C)[C@@H]([C@H](C)CCC(=O)O)CC[C@@H]23)[C@@]2(C)CC[C@@H](O)C[C@@H]12 [Obeticholic Acid, 6-Ethyl-Chenodeoxycholic acid]
insulin sensitivity: increased
